From article PMC9636579
No constants are given. Whether binding was seen depends on the method and setting. Binding seen in cells or lysates may run through a third protein. Some entries that bind do so weakly or less than the wild type.

By UniProt entry, the sequences of proteins in these tests, tags left out.
UniProt P09874: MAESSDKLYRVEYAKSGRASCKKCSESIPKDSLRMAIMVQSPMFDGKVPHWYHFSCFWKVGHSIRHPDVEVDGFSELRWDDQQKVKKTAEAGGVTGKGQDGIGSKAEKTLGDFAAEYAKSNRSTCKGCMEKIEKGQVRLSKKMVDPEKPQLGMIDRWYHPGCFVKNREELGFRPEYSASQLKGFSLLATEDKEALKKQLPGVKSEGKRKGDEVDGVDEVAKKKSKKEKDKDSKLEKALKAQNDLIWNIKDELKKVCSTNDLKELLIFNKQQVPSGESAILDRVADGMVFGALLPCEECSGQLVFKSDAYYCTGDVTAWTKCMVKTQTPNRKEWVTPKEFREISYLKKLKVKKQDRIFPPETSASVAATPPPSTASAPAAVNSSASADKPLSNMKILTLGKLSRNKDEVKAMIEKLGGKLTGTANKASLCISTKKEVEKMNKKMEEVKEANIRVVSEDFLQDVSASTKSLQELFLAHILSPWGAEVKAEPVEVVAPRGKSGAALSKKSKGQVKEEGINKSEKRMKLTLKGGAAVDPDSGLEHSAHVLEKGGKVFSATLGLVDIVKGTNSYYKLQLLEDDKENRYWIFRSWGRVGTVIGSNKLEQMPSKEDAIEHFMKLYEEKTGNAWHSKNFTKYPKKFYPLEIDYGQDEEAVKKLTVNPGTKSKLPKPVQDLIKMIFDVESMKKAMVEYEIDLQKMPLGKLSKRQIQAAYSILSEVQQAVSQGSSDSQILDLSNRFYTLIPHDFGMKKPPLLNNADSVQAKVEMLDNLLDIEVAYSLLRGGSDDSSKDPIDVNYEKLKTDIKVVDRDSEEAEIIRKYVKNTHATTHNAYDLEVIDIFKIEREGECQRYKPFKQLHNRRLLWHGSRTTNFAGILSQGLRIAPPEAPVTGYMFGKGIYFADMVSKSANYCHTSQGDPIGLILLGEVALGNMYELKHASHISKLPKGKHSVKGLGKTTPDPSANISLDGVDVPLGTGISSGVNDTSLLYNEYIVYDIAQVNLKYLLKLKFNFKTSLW
UniProt Q9UGN5: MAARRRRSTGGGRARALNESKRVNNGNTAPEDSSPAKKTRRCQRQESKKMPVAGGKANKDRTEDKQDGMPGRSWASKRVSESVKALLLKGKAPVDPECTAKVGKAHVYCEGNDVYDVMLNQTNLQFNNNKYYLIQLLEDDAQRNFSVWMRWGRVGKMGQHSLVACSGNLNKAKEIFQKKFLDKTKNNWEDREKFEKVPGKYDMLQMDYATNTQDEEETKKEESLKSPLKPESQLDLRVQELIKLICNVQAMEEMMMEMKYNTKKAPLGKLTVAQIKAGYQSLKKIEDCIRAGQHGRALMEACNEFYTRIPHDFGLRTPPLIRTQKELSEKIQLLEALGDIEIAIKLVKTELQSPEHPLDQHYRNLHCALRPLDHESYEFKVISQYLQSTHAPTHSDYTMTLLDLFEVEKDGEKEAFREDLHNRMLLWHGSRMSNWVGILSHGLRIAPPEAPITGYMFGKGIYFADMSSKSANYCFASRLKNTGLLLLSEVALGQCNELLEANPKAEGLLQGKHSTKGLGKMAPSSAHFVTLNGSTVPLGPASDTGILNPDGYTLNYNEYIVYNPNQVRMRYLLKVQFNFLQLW

Tests used:
[1] = molecular target: poly (ADP-ribose) polymerase 1 (human (endogenous in UWB1.289 cells and patient tumors)) (UniProt P09874); test: pull-down; c-olaparib or c-rucaparib beads incubated with UWB or UWB+B cell lysate ±20 μM free drug; eluates immunoblotted
[2] = molecular target: poly (ADP-ribose) polymerase 1 (human (endogenous in UWB1.289 cells and patient tumors)) (UniProt P09874); test: pull-down; c-olaparib or c-rucaparib beads incubated with lysates of frozen BRCA1-proficient or BRCA1-deficient ovarian cancer patient tumor samples ±20 μM free drug; eluates immunoblotted
[3] = molecular target: Ku70 (human (endogenous in UWB1.289 cells and patient tumors)) (UniProt P12956); test: co-IP; immunoprecipitation with IgG or Ku70 antibodies from UWB and UWB+B cell lysates; endogenous proteins, Western blot of eluates

| Substance | binding [1] | binding [2] | binding [3] |
| --- | --- | --- | --- |
| Ku80 (from UniProt P13010 1-732) | binds | binds |  |
| PARP2 (from UniProt Q9UGN5 1-583) |  |  | binds |
